{"sequences": {"note": "Protein sequences, listed by entry. Tags and fused reporters are not part of them. Residues count along the entry.", "UniProt P81177, 209-509": "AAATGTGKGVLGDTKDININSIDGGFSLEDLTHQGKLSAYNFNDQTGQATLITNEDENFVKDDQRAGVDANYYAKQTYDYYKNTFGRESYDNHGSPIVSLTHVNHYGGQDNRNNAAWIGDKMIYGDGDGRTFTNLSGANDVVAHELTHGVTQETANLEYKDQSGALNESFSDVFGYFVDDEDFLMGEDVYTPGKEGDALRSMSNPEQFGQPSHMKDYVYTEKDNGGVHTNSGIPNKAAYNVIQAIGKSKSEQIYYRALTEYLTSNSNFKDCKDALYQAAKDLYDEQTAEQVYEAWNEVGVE"}, "source": "patent US20070049518A1", "about": "“Novel method of treatment of inflammatory skin conditions” (priority 2005, published 2007)", "target": "aureolysin (Staphylococcus aureus, UniProt P81177)", "test": "Inhibition of aureolysin-mediated pro-uPA activation", "conditions": "Aureolysin 1 μg/ml, pH 5.6", "note": "At least one structure is not confirmed: it was looked up by name or label, or the drawing left a doubt.", "data": [{"compound": "CNC(=O)[C@@H](NC(=O)[C@H](CC(=O)NO)CC(C)C)C(C)(C)C", "note": "[Compound 12, (S)—N1-((S)-3,3-dimethyl-1-(methylamino)-1-oxobutan-2-yl)-N4-hydroxy-2-isobutylsuccinamide]", "values": [{"measurement": "uPA activity", "setting": "Compound 12 25 μM", "result": 1.6, "unit": "A405/0.5 h/μg"}, {"measurement": "uPA activity", "setting": "Compound 12 317 μM", "result": 0.3, "unit": "A405/0.5 h/μg"}]}]}
